These are yes or no findings as the source states them, for the method shown. For some assays here: Binding seen in cells or lysates may run through a third protein. Some results given as binding are weak or reduced against the parent protein; the word gives no strength. For some assays here: Tags and fused reporters may be left off the sequences shown.

Sequences of proteins named here, by UniProt entry; tags and fusion partners are left off. Residues count along the entry.
UniProt O08808, residues 73-370: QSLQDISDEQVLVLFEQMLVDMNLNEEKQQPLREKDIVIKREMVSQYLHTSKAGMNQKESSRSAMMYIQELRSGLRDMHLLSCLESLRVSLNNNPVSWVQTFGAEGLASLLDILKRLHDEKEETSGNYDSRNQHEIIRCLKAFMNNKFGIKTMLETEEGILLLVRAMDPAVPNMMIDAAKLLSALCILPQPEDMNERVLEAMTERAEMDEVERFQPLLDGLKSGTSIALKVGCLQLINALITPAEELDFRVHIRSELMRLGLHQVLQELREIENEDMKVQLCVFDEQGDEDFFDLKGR

For assay [1], the target named is GST-mDia1-G-DID (73–370 aa) (UniProt O08808). In words: pull-down; GST-mDia1-G-DID on glutathione-Sepharose beads incubated with thrombin-released Rif loaded with GTP (compared with GDP), 4 °C, 1 h; washed three times with lysis buffer; immunoblot with anti-Rif; also with HEK293 cell lysate added; both purified.
Assay [2] shares this target. The experiment in a line: pull-down; Rif activation assay: GST-mDia1-G-DID beads with lysate of serum-starved HeLa cells, treated or not with EGF, LPA, S1P, serum or inhibitors of p38 MAPK, PI3K or p42/44 MAPK; immunoblot with anti-Rif; only the target purified.

B1: Rif (1–195 aa), released from GST-Rif by thrombin (domain or fragment, UniProt Q9HBH0 1-195)
chain: MDAPGALAQTAAPGPGRKELKIVIVGDGGCGKTSLLMVYSQGSFPEHYAPSVFEKYTASVTVGSKEVTLNLYDTAGQEDYDRLRPLSYQNTHLVLICYDVMNPTSYDNVLIKWFPEVTHFCRGIPMVLIGCKTDLRKDKEQLRKLRAAQLEPITYMQGLSACEQIRAALYLECSAKFRENVEDVFREAAKVALSA
Take B1: in assay [1], the binding entry is listed as “binds”.

B2: endogenous Rif in HeLa cell lysate (protein, UniProt Q9HBH0 1-211)
chain: MDAPGALAQTAAPGPGRKELKIVIVGDGGCGKTSLLMVYSQGSFPEHYAPSVFEKYTASVTVGSKEVTLNLYDTAGQEDYDRLRPLSYQNTHLVLICYDVMNPTSYDNVLIKWFPEVTHFCRGIPMVLIGCKTDLRKDKEQLRKLRAAQLEPITYMQGLSACEQIRAALYLECSAKFRENVEDVFREAAKVALSALKKAQRQKKRRLCLLL
B2: the binding result in assay [2] is listed as “binds”.

These data come from publication PMC5297781.
